# The supplement of paper PMC7411640
# Structures can show the parent of a compound that is named as a salt. The list shows a part of the results. This data set is noisy: repeats of one test often differ as much as different tests do.
# Test system: MDA-MB-468
# Assay: phospho-S6 immunofluorescence (DAPI-normalised), per-plate z-score; higher = higher phospho-S6 signal (less pathway suppression)
# Details: 24 h
# Experimental: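 GPCR-targeted compound library (MedChemExpress HY-L006) tested on MDA-MB-468 PTEN-null TNBC cells in 384-well plates at 0.1, 1 or 10 uM, combined with vehicle, GDC0941 450 nM or lapatinib 1 uM, for 24 h. Phospho-S6 (S240/244) immunofluorescence normalised to DAPI and expressed as a per-plate z-score; values are the mean of biological triplicates.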
# [1] = compound 0.1 µM, co-treatment: GDC0941 450 nM
# [2] = compound 0.1 µM, co-treatment: lapatinib 1 uM
# [3] = compound 0.1 µM, co-treatment: vehicle
# [4] = compound 1 µM, co-treatment: GDC0941 450 nM
# [5] = compound 1 µM, co-treatment: lapatinib 1 uM
# [6] = compound 1 µM, co-treatment: vehicle
# [7] = compound 10 µM, co-treatment: GDC0941 450 nM
# [8] = compound 10 µM, co-treatment: lapatinib 1 uM
# [9] = compound 10 µM, co-treatment: vehicle
SMILES,phospho-S6 immunofluorescence (z-score) [1],phospho-S6 immunofluorescence (z-score) [2],phospho-S6 immunofluorescence (z-score) [3],phospho-S6 immunofluorescence (z-score) [4],phospho-S6 immunofluorescence (z-score) [5],phospho-S6 immunofluorescence (z-score) [6],phospho-S6 immunofluorescence (z-score) [7],phospho-S6 immunofluorescence (z-score) [8],phospho-S6 immunofluorescence (z-score) [9]
C/C(=N\NC(=O)C(NC(=O)c1ccccc1)c1n[nH]c(=O)c2ccccc12)c1cccc(Br)c1 (configuration not stated),-0.44,0.63,-0.11,0.22,0.14,0.65,0.96,0.13,0.95
COCCc1ccc(OCC(O)CNC(C)C)cc1 (configuration not stated) [Metoprolol (Succinate)],2.61,-1.38,0.61,0.31,0.24,1.08,,,
CN1[C@@H]2CC[C@H]1C[C@@H](OC(=O)C(O)c1ccccc1)C2 (some centres not stated) [Homatropine (Bromide)],-0.17,-1.24,-0.6,-1.09,-0.61,0.28,-0.26,0.08,0.37
Cc1cc(C(C)(C)C)c(O)c(C)c1CC1=NCCN1 [Oxymetazoline (hydrochloride)],-0.42,0.23,-1.31,0.22,-0.42,-0.91,,,
C=CCN1CCc2c(cc(O)c(O)c2Cl)C(c2ccccc2)C1 (configuration not stated),3.67,1.42,2.13,2.02,2.02,2.8,,,
CS(=O)(=O)c1cc(F)cc2c3c(n(Cc4ccc(Cl)cc4)c12)[C@@H](CC(=O)O)CC3 [Laropiprant],1.31,0.6,1.7,1.63,0.74,1.75,,,
CN(C)CCc1c[nH]c2ccc(Cn3cncn3)cc12 [Rizatriptan (benzoate)],-0.98,0.17,0.21,-1.44,-0.44,-1.13,-1.62,0.19,-1.1
C=CCc1ccccc1OCC(O)CNC(C)C (configuration not stated) [Alprenolol (hydrochloride)],1.89,0.78,0.5,0.25,-0.42,0.43,0.45,-0.09,1.12
CNC(=O)[C@H]1O[C@@H](n2cnc3c(NCc4cccc(I)c4)nc(Cl)nc32)[C@H](O)[C@@H]1O,-2.47,-1.3,-2.32,-1.44,-0.1,-2.08,-1.27,-1.18,-2.34
CN(C)CCc1c[nH]c2ccc(C[C@H]3COC(=O)N3)cc12 [Zolmitriptan],-1.21,-0.76,-1.22,0.13,-0.26,-1.25,0.87,0.6,-0.48
CC[C@@H](Nc1c(Nc2cccc(C(=O)N(C)C)c2O)c(=O)c1=O)c1ccc(C)o1,0.47,0.21,1.67,0.25,0.05,1.15,0.29,-0.41,2.26
CN1CCC(=C2c3ccccc3C=Cc3ccccc32)CC1 [Cyproheptadine (hydrochloride)],0.01,0.26,0.74,0.98,-0.07,0.54,,,
COc1cc(N)c(Cl)cc1C(=O)NC1CCN(CCCOc2ccc(F)cc2)CC1OC (configuration not stated) [Cisapride],-0.53,-0.81,-0.59,-0.05,-0.59,-0.11,-1.02,-1.88,-0.58

# For reference, some entries already given.
SMILES,phospho-S6 immunofluorescence (z-score) [1],phospho-S6 immunofluorescence (z-score) [2],phospho-S6 immunofluorescence (z-score) [3],phospho-S6 immunofluorescence (z-score) [4],phospho-S6 immunofluorescence (z-score) [5],phospho-S6 immunofluorescence (z-score) [6],phospho-S6 immunofluorescence (z-score) [7],phospho-S6 immunofluorescence (z-score) [8],phospho-S6 immunofluorescence (z-score) [9]
C/C(=N\NC(=O)C(NC(=O)c1ccccc1)c1n[nH]c(=O)c2ccccc12)c1cccc(Br)c1 (configuration not stated),-0.44,0.63,-0.11,0.22,0.14,0.65,0.96,0.13,0.95
COCCc1ccc(OCC(O)CNC(C)C)cc1 (configuration not stated) [Metoprolol (Succinate)],2.61,-1.38,0.61,0.31,0.24,1.08,,,
